Assay results published in patent US9708244B2, “Coloring material and method for producing the same” (DAI NIPPON PRINTING CO., LTD., priority 2012, dated 2017).

Assays:
[1] = Evaluation of dyeing property by using water (dyed fabric washed with running water); parameters: key: ∘: There was no loss of color from the fabric; Δ: There was a loss of color from the fabric; x: No color remained on the fabric; details: dyed fabric washed with running water at 20° C. for 10 minutes, loss of color visually observed
[2] = Evaluation of dyeing property by using detergent (dyed fabric immersed in detergent, then washed); parameters: key: ∘: There was no loss of color from the fabric; Δ: There was a loss of color from the fabric; x: No color remained on the fabric; details: immersed in surfactant-containing detergent 5 minutes, then running water at 20° C. for 5 minutes, visually observed

Row | Compound | Dyeing property: washed with running water [1] | Dyeing property: immersed in detergent and then washed with running water [2]
1 | CCNc1ccc(C(=C2C=CC(=[N+](CC)CC)C=C2)c2ccc(N(CC)CC)cc2)c2ccccc12.[Cl-] [Color material D, Basic Blue 7 (CI-42595)] | x | x
2 | CCNc1ccc(C(=C2C=CC(=[N+](CC)CC)C=C2)c2ccc(N(CC)CC)cc2)c2ccccc12 [Color material F] | Δ | x
3 | CCN(CC)c1ccc(C(=C2C=CC(=[N+](CC)CC)C=C2)c2ccc(NCc3ccc(CNc4ccc(C(=C5C=CC(=[N+](CC)CC)C=C5)c5ccc(N(CC)CC)cc5)c5ccccc45)cc3)c3ccccc23)cc1 [Color material B] | ∘ | ∘
4 | CCNc1ccc(C(=C2C=CC(=[N+](CC)CC)C=C2)c2ccc(N(CC)CC)cc2)c2ccccc12.Cc1ccc(S(=O)(=O)[O-])cc1 [Color material E] | Δ | x
5 | CCN(CC)c1ccc(C(=C2C=CC(=[N+](CC)CC)C=C2)c2ccc(NCc3ccc(CNc4ccc(C(=C5C=CC(=[N+](CC)CC)C=C5)c5ccc(N(CC)CC)cc5)c5ccccc45)cc3)c3ccccc23)cc1.[Cl-].[Cl-] [Color material A] | ∘ | ∘
